Whole data set: some 33,000 sequences, median “E-score (-0.5 to 0.5)” near -0.015, cut for the highest 2% near 0.3. The list shows a part of the results.
target: T1, Abf1 (UniProt P14164); assay: PBM E-score (8-mer binding enrichment) (E-score (-0.5 to 0.5)); higher = stronger / more preferred TF binding; conditions: protein concentration: 200 nM; construct: GST-full length
T1 sequence: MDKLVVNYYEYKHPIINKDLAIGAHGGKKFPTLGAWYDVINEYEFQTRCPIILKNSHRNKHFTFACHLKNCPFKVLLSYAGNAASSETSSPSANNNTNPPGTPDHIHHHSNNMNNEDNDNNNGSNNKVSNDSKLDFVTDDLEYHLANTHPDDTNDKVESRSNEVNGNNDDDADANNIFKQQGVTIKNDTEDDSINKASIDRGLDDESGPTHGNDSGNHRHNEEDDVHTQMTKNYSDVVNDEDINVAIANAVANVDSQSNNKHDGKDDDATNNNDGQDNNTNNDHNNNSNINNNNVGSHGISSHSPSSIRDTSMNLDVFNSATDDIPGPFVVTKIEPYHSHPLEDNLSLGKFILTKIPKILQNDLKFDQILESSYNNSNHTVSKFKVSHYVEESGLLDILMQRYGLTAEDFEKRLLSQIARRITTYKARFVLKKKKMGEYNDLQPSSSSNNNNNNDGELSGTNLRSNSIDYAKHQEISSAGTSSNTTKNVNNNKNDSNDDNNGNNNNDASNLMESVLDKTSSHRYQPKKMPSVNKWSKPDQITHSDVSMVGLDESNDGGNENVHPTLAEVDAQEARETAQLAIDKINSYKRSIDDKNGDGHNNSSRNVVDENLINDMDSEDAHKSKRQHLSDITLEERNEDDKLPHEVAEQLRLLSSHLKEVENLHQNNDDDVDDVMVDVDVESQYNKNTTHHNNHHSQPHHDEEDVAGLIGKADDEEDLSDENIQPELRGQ
Method: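 Universal 'all 10-mer' protein binding microarrays (Agilent AMADID 015681) probed with GST-tagged S. cerevisiae TFs (full-length or DBD) made by in vitro transcription/translation (PURExpress), about 100-200 nM. Bound TF was detected with fluorescent anti-GST. Each ungapped 8-mer (which stands for itself and its reverse complement) is scored by the PBM enrichment score (E-score), a modified Wilcoxon-Mann-Whitney statistic from -0.5 to +0.5, computed with the Universal PBM Analysis Suite. Scale: above 0.35 generally sequence-specific binding.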

| Sequence | PBM E-score |
| --- | --- |
| TCCCACCA | -0.167 |
| GATAGCAC | 0.00749 |
| CAGGCATA | 0.0594 |
| GGGACGGA | -0.0422 |
| AAGTACGA | 0.151 |
| CACACTAA | 0.0798 |
| ACTCGTAT | 0.305 |
| AGAGACCC | -0.221 |
| AGGCTGAA | -0.0655 |
| GTGAGCGA | 0.13 |
| CAGGAGCG | 0.0108 |
| CCGTCTCC | -0.0673 |
| AAGGGTGA | 0.0177 |
| GACCGTGC | 0.108 |
| GAGCGAAA | 0.172 |
| CCCAGACC | -0.232 |
| CGAGTCCA | -0.247 |
| ACTTAACT | -0.0639 |
| CAATGGAC | 0.16 |
| CTCGGGCC | -0.183 |
| CTGGGCTC | -0.261 |
| CCGCCCAG | -0.142 |
| GACTGCTA | -0.2 |
| ACTGCATA | -0.0281 |
| ATTTAGCG | 0.0162 |

| Sequence | PBM E-score |
| --- | --- |
| ACCACAAC | -0.0325 |
| GCCGAAGA | 0.0287 |
| GGGGCAAA | -0.098 |
| AAATGCCT | -0.0261 |
| GACATGTA | 0.17 |
| CATCTAAA | -0.0455 |
| ACTGCAAC | -0.129 |
| GCCTAGCA | -0.156 |
| AATATCCT | -0.0411 |
| GTCCATAA | -0.0217 |
| ATCCGGTC | -0.147 |
| CCGGTCAG | -0.196 |
| AGCGCCCA | -0.195 |
| GAAGTGAA | 0.064 |
| GTCCGCTA | -0.0723 |
| ACTAGGTG | -0.211 |
| ATCTTACC | 0.115 |
| GCATAGGA | -0.0459 |
| ATCTCCCA | 0.115 |
| GCGCATAA | 0.0993 |
| ATTAGGTA | 0.113 |
| GCGCCGCA | 0.0535 |
| CCGCGGCC | 0.0472 |
| CGCTGCCG | -0.0244 |
| TAACTAAA | -0.0174 |

In another format: entries from further up.
Sequence	PBM E-score
ACTCGTAT	0.305
CAGGAGCG	0.0108
GAGCGAAA	0.172
CCCAGACC	-0.232

Later entries.

| Sequence | PBM E-score |
| --- | --- |
| GACGGGCC | -0.0134 |
| CAGAGTAC | 0.0802 |
| ACGTCTTA | 0.223 |
| GCTAAAAA | 0.0945 |
| AGAATCTG | -0.0507 |
| CACGCATA | 0.0214 |
| CAACGCTG | -0.18 |
| TGCCTAAA | -0.143 |
| AGCGTTTA | -0.153 |
| CTGCAGGA | 0.0199 |
| CATACACG | 0.181 |
| AATAGCGT | 0.0567 |
| TCCGAGAA | 0.0043 |
| GAATGACA | 0.311 |
| GTAAGCGA | 0.135 |
| CCATAAAC | 0.0167 |
| CAGGTAAG | -0.0344 |
| CGAGCTCA | 0.00045 |
| AGGCGGTA | -0.0876 |
| AAGAATGT | 0.199 |
| CGACCCGA | -0.165 |
| CCAGGCGG | -0.284 |
| AGACGCGC | -0.103 |
| GGTCCCAC | -0.137 |
| GGGTGGCA | -0.095 |

| Sequence | PBM E-score |
| --- | --- |
| AGGTCGAA | -0.0499 |
| GGTTACGA | 0.0663 |
| ATGGGGTG | -0.064 |
| CAGCGAAA | -0.136 |
| CACTTTAC | -0.0137 |
| ATTAAGGC | 0.0843 |
| CGTCTAAC | 0.225 |
| CTAATCAA | 0.025 |
| AGGACGCC | -0.078 |
| CCCTTTCA | -0.148 |
| GTGGCCTA | -0.143 |
| ATTACAAG | 0.103 |
| CACGGGGA | -0.137 |
| ACATTATA | 0.0936 |
| CTCTTCCA | -0.0292 |
| GCTAATAC | 0.0155 |
| CCGTATCA | 0.28 |
| ATGAATCA | 0.103 |
| GACAAGTC | 0.0377 |
| TTGATAAA | 0.23 |
| ATAACGGG | 0.0588 |
| CTGTTTAA | -0.163 |
| ATACCGGC | 0.0536 |
| AGTACGGG | 0.0191 |
| TAAGCTAA | 0.174 |

| Sequence | PBM E-score |
| --- | --- |
| CCTTCGTA | 0.292 |
| CTTTCGGC | -0.248 |
| CACATCTG | -0.183 |
| AATCGCAA | -0.0324 |
| AAACAAAG | -0.0583 |
| ATGGATAC | 0.114 |
| AAGTAAAC | -0.0812 |
| GTCGCCAC | 0.0471 |
| AGGCACCG | -0.14 |
| GAGAGGCA | -0.176 |
| CCACACCA | 0.0401 |
| CGATAGTC | 0.181 |
| TCATTTAA | 0.121 |
| CGTGGCAA | -0.0194 |
| GTACCGAC | -0.0724 |
| AGAACTCT | -0.129 |
| TCTGGTAA | -0.0108 |
| CCGTTGAA | 0.0872 |
| CAGAATCC | -0.0308 |
| ACTAAACC | 0.0376 |
| ACGAGTGC | 0.154 |
| TATAACGA | 0.282 |
| ATCGGCTA | -0.137 |
| CCCACCTA | -0.125 |
| CATATAGC | -0.0946 |

Quoted at random: 6 entries already listed

| Sequence | PBM E-score |
| --- | --- |
| CTTTCGGC | -0.248 |
| ATCGGCTA | -0.137 |
| CATATAGC | -0.0946 |
| CAGAATCC | -0.0308 |
| CACATCTG | -0.183 |
| AATCGCAA | -0.0324 |

Carrying on.

| Sequence | PBM E-score |
| --- | --- |
| GCGTAACC | -0.00117 |
| ATGGTTAC | -0.0718 |
| CGCCACCA | -0.138 |
| CGACTTAC | -0.147 |
| GGATTGGA | -0.0447 |
| ACAGTAAA | -0.0655 |
| AAGGGCAG | -0.201 |
| GAGTGACC | 0.207 |
| GGCAATTA | -0.0787 |
| ATGAGGAG | -0.0674 |
| AGAAGCCA | 0.0533 |
| ATCGATGC | 0.00132 |
| CCCGTCAC | 0.0669 |
| AGCGGCAT | 0.0563 |
| CCGACTAG | -0.261 |
| AAATTTAT | 0.272 |
| CTTAATGA | 0.157 |
| GACGATAA | 0.363 |
| GATCTTCC | 0.068 |
| AATCACGG | 0.213 |
| AGTATCAC | 0.188 |
| TTCACCAA | -0.0311 |
| GTCCAGGA | 0.0731 |
| GCATTTCC | -0.0654 |
| CGGCACAG | -0.129 |

| Sequence | PBM E-score |
| --- | --- |
| GAGATTTA | 0.0781 |
| AACACTAC | -0.0369 |
| ATGCGGAA | -0.0563 |
| CCACACGG | 0.176 |
| GTCGTACA | 0.383 |
| AGAATCGC | 0.0699 |
| CACTATGC | 0.142 |
| ACGCCAAA | 0.0414 |
| CAAAGCTA | 0.0117 |
| AGCCGTGC | 0.163 |
| ACTTAATA | 0.0767 |
| CCGCGAAA | -0.00148 |
| GGATTGAC | 0.0426 |
| GTTACCCA | -0.218 |
| ATATGCAC | -0.00963 |
| AGGTGGTC | -0.188 |
| GATCGGAC | 0.0221 |
| ACCTGAGG | -0.32 |
| GCGATAGA | 0.0104 |
| AAGATTAC | 0.00254 |
| AAGTATCA | 0.257 |
| ATCGTTGG | 0.222 |

Exported field by field: entries from further up.
AGCCGTGC
  PBM E-score = 0.163
ACTTAATA
  PBM E-score = 0.0767
